The list shows a part of the results.
Columns and labels:
Test in all cases: log2 fold change, soluble protein after heating vs DMSO (PISA); higher = thermal stabilisation; K562 cells, 10 uM, 30 min; active = over 0.2 and 3.5 SD of the protein, either way, in both replicates (recomputed)
[1] = compound: NC(=O)Nc1cc(-c2cccc(F)c2)sc1C(=O)N[C@H]1CCCNC1
Procedure, shortened: (§1)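 K562 cells at 2×10^6 cells/mL were exposed to 10 μM compound for 30 min, then aliquots were heated for 3 min across 48°C-58°C, pooled, and extracted in PBS containing 0.5% NP-40 at 4°C. The supernatant after 21,000xg for 90 min was taken as soluble protein and measured by TMTpro 16plex LC-MS/MS with channel sums equalised. Thermal stability is reported relative to control samples, with values from duplicates. Fold changes are given on a log2 scale.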

Amino acid sequences for entries named in this document (tags omitted). A change or cut given only in a name is not applied to a line headed by its entry.
UniProt P26583: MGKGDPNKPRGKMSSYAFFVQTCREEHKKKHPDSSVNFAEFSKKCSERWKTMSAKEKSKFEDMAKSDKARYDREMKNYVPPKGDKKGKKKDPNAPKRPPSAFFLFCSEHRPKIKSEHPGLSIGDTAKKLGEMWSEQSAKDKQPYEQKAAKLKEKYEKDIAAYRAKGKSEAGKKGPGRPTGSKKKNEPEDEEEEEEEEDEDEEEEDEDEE
UniProt P34932: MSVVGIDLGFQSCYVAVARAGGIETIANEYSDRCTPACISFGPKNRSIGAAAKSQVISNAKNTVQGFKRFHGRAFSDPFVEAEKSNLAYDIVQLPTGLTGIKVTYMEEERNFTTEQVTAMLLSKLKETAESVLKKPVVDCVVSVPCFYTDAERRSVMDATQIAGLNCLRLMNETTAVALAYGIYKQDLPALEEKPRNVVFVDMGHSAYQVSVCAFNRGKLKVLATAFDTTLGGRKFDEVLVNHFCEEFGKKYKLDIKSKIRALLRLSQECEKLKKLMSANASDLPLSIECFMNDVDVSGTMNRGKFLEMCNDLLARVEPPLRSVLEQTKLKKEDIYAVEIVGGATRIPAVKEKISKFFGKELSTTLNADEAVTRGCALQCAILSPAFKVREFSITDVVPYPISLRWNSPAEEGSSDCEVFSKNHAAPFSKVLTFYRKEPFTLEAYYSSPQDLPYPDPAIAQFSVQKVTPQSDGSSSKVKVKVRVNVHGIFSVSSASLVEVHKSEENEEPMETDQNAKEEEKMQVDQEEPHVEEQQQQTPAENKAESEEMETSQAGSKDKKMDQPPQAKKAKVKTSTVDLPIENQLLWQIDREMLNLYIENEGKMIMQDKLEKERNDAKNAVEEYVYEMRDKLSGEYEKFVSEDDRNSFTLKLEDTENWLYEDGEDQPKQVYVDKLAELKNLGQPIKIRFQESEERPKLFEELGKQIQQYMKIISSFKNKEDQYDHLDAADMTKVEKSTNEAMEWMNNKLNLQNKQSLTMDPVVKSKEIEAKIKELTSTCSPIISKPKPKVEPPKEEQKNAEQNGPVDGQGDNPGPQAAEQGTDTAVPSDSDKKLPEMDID
UniProt P17096: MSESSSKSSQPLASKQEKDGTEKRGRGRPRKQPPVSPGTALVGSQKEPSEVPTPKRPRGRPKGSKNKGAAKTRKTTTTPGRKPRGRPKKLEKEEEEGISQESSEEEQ
UniProt P0DMV8, whole entry, looked up: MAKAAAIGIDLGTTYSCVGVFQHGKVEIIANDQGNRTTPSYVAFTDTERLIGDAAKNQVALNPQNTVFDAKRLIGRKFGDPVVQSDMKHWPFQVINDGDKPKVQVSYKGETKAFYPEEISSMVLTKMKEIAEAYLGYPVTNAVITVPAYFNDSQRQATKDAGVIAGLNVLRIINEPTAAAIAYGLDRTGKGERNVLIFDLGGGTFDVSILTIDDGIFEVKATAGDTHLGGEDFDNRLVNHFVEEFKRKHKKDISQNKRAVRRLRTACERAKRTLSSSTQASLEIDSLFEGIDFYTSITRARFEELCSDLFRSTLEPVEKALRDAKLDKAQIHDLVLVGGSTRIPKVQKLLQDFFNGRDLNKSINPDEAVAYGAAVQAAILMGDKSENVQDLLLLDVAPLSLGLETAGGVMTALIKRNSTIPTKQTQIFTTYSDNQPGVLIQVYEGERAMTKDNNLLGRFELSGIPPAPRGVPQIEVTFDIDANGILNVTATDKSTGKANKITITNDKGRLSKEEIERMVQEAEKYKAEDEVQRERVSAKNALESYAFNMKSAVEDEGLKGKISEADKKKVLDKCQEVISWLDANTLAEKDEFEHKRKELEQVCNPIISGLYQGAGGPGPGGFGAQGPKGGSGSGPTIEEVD
UniProt Q7LGA3: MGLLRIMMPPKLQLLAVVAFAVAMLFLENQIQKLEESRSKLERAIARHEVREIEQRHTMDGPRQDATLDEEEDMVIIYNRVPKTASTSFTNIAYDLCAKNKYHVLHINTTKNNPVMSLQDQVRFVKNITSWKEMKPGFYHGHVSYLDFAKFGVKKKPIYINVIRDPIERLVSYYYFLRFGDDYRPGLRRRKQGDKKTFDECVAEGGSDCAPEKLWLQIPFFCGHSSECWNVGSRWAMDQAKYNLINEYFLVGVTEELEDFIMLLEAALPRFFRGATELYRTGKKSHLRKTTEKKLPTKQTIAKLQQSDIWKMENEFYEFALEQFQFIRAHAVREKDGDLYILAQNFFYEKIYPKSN
UniProt Q5SSJ5: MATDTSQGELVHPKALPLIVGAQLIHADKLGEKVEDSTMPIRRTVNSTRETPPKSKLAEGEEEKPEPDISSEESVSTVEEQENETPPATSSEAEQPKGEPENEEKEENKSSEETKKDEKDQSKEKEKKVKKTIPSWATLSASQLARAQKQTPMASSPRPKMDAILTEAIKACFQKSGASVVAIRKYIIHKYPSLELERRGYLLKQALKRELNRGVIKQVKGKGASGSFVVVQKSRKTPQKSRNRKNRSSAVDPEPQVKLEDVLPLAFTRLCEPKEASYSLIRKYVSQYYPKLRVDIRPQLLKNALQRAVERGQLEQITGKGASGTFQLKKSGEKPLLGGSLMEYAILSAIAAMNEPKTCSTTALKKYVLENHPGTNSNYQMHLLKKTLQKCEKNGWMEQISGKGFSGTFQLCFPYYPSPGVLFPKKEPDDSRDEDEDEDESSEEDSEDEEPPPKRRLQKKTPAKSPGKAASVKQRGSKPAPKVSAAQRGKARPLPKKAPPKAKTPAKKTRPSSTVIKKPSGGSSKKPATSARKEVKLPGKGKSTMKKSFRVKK
UniProt H0YH80: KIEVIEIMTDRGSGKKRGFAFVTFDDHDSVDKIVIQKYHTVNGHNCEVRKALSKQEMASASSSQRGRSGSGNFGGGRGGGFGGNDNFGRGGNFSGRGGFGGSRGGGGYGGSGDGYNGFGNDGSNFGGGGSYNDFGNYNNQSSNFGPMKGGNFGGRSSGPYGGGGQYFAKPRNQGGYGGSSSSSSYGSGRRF
UniProt Q1KMD3: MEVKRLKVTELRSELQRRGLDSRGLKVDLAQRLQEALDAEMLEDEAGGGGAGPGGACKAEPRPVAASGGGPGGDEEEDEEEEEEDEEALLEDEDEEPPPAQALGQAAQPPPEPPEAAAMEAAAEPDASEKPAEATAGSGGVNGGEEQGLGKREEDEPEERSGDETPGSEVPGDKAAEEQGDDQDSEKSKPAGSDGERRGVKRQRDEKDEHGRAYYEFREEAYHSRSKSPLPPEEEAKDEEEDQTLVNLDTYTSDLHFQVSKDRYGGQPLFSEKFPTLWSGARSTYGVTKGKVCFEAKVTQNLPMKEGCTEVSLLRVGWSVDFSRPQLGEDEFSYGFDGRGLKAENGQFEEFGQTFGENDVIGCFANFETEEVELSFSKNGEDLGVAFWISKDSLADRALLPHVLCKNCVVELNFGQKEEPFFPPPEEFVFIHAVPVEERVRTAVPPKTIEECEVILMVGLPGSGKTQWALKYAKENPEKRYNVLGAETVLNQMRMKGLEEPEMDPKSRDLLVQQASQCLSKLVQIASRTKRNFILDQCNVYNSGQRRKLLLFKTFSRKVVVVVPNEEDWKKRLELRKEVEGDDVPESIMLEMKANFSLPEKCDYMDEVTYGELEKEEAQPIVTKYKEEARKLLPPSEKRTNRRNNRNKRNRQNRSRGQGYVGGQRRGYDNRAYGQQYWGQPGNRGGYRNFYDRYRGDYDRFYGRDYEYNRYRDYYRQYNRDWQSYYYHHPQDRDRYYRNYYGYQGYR
UniProt P31942: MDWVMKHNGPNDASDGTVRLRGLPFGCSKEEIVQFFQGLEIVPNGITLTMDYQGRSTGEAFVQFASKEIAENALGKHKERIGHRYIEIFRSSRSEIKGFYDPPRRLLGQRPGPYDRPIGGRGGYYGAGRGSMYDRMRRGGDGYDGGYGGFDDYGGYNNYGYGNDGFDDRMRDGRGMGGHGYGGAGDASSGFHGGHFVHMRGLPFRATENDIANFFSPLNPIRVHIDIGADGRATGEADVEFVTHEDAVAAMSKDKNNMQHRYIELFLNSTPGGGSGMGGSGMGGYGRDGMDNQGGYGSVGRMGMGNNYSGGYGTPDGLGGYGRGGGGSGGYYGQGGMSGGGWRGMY
UniProt Q01581: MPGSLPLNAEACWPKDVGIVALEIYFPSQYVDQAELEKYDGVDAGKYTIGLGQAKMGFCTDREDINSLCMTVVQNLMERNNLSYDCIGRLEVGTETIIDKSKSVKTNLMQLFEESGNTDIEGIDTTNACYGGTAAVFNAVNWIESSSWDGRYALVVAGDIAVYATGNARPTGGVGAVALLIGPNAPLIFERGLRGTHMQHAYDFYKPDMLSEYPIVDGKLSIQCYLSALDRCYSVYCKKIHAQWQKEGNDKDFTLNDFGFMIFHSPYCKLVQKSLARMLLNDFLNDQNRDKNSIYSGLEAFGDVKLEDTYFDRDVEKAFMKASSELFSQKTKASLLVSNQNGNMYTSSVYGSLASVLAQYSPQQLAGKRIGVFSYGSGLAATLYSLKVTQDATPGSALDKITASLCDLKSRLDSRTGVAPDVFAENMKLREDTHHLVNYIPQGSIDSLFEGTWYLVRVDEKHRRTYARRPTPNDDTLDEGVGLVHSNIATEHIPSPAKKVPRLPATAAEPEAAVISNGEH
UniProt P56937: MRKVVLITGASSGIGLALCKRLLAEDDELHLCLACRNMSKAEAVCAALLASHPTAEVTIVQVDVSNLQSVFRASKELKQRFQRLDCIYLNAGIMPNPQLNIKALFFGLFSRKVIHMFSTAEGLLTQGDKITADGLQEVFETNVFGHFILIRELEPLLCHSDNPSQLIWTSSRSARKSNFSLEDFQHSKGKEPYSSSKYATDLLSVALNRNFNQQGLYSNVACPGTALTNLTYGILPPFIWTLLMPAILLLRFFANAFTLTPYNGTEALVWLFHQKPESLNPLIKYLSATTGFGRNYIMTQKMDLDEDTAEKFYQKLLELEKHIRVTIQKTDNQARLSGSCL
UniProt P22626: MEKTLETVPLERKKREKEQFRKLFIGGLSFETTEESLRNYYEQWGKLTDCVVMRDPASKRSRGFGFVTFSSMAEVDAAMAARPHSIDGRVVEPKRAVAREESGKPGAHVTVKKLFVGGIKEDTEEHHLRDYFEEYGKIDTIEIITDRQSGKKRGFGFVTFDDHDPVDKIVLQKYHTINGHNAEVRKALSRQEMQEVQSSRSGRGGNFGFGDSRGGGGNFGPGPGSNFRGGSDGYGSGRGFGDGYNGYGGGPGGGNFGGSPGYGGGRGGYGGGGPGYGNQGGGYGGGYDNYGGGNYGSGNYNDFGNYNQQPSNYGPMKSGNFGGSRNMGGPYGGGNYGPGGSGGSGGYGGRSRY
UniProt P61604, whole entry, looked up: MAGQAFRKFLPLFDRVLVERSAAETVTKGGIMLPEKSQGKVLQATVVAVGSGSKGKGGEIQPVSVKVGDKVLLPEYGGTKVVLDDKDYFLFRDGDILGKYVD
UniProt P14625, whole entry, looked up: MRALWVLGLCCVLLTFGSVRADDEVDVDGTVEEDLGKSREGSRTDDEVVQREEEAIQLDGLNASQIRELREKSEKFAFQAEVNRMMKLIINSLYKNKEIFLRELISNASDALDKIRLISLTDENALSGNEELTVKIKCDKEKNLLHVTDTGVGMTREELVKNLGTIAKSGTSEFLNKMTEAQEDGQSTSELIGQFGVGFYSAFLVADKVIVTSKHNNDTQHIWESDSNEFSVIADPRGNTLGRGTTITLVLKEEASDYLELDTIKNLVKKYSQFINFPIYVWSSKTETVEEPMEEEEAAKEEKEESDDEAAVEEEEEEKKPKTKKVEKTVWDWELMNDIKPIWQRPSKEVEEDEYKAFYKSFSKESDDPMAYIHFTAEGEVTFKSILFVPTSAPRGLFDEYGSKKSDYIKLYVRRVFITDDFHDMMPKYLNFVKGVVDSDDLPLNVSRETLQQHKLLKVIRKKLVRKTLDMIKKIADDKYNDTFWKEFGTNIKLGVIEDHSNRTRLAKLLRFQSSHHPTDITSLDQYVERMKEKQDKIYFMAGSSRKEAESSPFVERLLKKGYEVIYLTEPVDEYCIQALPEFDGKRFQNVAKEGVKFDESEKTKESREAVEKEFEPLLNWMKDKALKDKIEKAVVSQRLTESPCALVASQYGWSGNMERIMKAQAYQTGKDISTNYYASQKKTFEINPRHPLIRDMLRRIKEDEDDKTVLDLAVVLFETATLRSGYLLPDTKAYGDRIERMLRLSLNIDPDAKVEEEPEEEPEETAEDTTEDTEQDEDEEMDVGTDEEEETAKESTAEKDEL
UniProt Q8TCT9: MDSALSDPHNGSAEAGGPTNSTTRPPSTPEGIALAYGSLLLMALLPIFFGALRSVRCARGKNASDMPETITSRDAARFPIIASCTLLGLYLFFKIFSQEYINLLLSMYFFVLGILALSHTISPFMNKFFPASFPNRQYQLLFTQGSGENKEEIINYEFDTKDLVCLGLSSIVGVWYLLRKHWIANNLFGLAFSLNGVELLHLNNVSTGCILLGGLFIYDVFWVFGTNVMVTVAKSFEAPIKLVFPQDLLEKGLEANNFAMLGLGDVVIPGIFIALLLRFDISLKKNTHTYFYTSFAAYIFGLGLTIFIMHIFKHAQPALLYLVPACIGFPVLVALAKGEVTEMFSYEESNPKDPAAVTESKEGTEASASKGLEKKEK

[2] = compound: NC(=O)c1cnc(N[C@@H]2CCCC[C@@H]2N)nc1Nc1cccc(-n2nccn2)c1
Procedure, shortened: as §1

[3] = compound: NC1(c2ccc(-c3nc4ccn5c(=O)[nH]nc5c4cc3-c3ccccc3)cc2)CCC1
Procedure, shortened: as §1

[4] = compound: NCC(=O)Nc1ccc(-n2nc(C(F)(F)F)cc2-c2ccc3c(ccc4ccccc43)c2)cc1
Procedure, shortened: as §1

entinostat = compound: Nc1ccccc1NC(=O)c1ccc(CNC(=O)OCc2cccnc2)cc1 [entinostat]
Procedure, shortened: as §1

vorinostat = compound: O=C(CCCCCCC(=O)Nc1ccccc1)NO [vorinostat]
Procedure, shortened: as §1

citarinostat = compound: O=C(CCCCCCNC(=O)c1cnc(N(c2ccccc2)c2ccccc2Cl)nc1)NO [citarinostat]
Procedure, shortened: as §1

silmitasertib = compound: O=C(O)c1ccc2c(c1)nc(Nc1cccc(Cl)c1)c1ccncc12 [silmitasertib]
Procedure, shortened: as §1

[5] = compound: O=C1NC(=O)C(c2cnc3ccccn23)=C1c1cn2c3c(cc(F)cc13)CN(C(=O)N1CCCCC1)CC2
Procedure, shortened: as §1

[6] = compound: c1cc(OCCN2CCCCC2)cc(-c2n[nH]c3ccc(-c4nnc[nH]4)cc23)c1
Procedure, shortened: as §1

Measured: log2 fold change

HMCN1 (UniProt Q96RW7)
inactive: [1] -0.038 | [2] 0.083 | [3] 0.216 | [4] 0.036 | entinostat -0.006 | vorinostat 0.073 | citarinostat 0.013 | silmitasertib 0.076 | [5] 0.127 | [6] 0.537

HUWE1 (UniProt Q7Z6Z7)
inactive: [1] 0.021 | [2] -0.061 | [3] -0.118 | [4] -0.038 | entinostat 0.008 | vorinostat 0.03 | citarinostat 0.026 | silmitasertib 0.008 | [5] -0.01 | [6] -0.024

HMGB2 (UniProt P26583)
inactive: [1] 0.082 | [2] 0.04 | [3] 0.103 | [4] 0.081 | entinostat 0.011 | vorinostat -0.035 | citarinostat 0 | silmitasertib -0.11 | [5] -0.011 | [6] 0.126

HSPA4 (UniProt P34932)
inactive: [1] 0 | [2] -0.004 | [3] -0.05 | [4] -0.015 | entinostat 0.006 | vorinostat -0.001 | citarinostat 0.036 | silmitasertib 0 | [5] -0.006 | [6] 0.01

HMGA1 (UniProt P17096)
inactive: [1] 0 | [2] 0.07 | [3] 0.309 | [4] 0.046 | entinostat -0.099 | vorinostat -0.017 | citarinostat -0.138 | silmitasertib -0.139 | [5] 0.107 | [6] -0.06

HSPA1A (UniProt P0DMV8)
inactive: [1] -0.003 | [2] 0.025 | [3] 0.066 | [4] 0.025 | entinostat -0.002 | vorinostat -0.062 | citarinostat -0.069 | silmitasertib -0.025 | [5] -0.012 | [6] -0.017

HS2ST1 (UniProt Q7LGA3)
inactive: [1] 0.011 | [2] 0.007 | [3] -0.022 | [4] 0.067 | entinostat -0.014 | vorinostat 0.029 | citarinostat -0.008 | silmitasertib 0.066 | [5] 0.022 | [6] -0.059

HSPA8 (UniProt E9PK54)
inactive: [1] 0.015 | [2] 0.023 | [3] -0.071 | [4] -0.136 | entinostat 0.061 | vorinostat -0.064 | citarinostat 0.068 | silmitasertib 0.028 | [5] 0.093 | [6] -0.027

HP1BP3 (UniProt Q5SSJ5)
inactive: [1] 0.026 | [2] -0.057 | [3] 0.043 | [4] -0.034 | entinostat 0.025 | vorinostat 0.132 | citarinostat 0.113 | silmitasertib -0.048 | [5] 0.067 | [6] -0.023

ICAM1 (UniProt P05362)
inactive: [1] 0.016 | [2] 0.109 | [3] 0.087 | [4] 0.008 | entinostat -0.026 | vorinostat -0.008 | citarinostat 0.024 | silmitasertib -0.028 | [5] -0.07 | [6] -0.06

HNRNPA1 (UniProt H0YH80)
inactive: [1] 0.111 | [2] 0.142 | [3] 0.532 | [4] 0.385 | entinostat -0.125 | vorinostat -0.031 | citarinostat -0.16 | silmitasertib 0.04 | [5] 0.303 | [6] -0.179

Nine consecutive entries out of the list so far, for reference:
HMGB2 (UniProt P26583)
inactive: [1] 0.082 | [2] 0.04 | [3] 0.103 | [4] 0.081 | entinostat 0.011 | vorinostat -0.035 | citarinostat 0 | silmitasertib -0.11 | [5] -0.011 | [6] 0.126

HSPA4 (UniProt P34932)
inactive: [1] 0 | [2] -0.004 | [3] -0.05 | [4] -0.015 | entinostat 0.006 | vorinostat -0.001 | citarinostat 0.036 | silmitasertib 0 | [5] -0.006 | [6] 0.01

HMGA1 (UniProt P17096)
inactive: [1] 0 | [2] 0.07 | [3] 0.309 | [4] 0.046 | entinostat -0.099 | vorinostat -0.017 | citarinostat -0.138 | silmitasertib -0.139 | [5] 0.107 | [6] -0.06

HSPA1A (UniProt P0DMV8)
inactive: [1] -0.003 | [2] 0.025 | [3] 0.066 | [4] 0.025 | entinostat -0.002 | vorinostat -0.062 | citarinostat -0.069 | silmitasertib -0.025 | [5] -0.012 | [6] -0.017

HS2ST1 (UniProt Q7LGA3)
inactive: [1] 0.011 | [2] 0.007 | [3] -0.022 | [4] 0.067 | entinostat -0.014 | vorinostat 0.029 | citarinostat -0.008 | silmitasertib 0.066 | [5] 0.022 | [6] -0.059

HSPA8 (UniProt E9PK54)
inactive: [1] 0.015 | [2] 0.023 | [3] -0.071 | [4] -0.136 | entinostat 0.061 | vorinostat -0.064 | citarinostat 0.068 | silmitasertib 0.028 | [5] 0.093 | [6] -0.027

HP1BP3 (UniProt Q5SSJ5)
inactive: [1] 0.026 | [2] -0.057 | [3] 0.043 | [4] -0.034 | entinostat 0.025 | vorinostat 0.132 | citarinostat 0.113 | silmitasertib -0.048 | [5] 0.067 | [6] -0.023

ICAM1 (UniProt P05362)
inactive: [1] 0.016 | [2] 0.109 | [3] 0.087 | [4] 0.008 | entinostat -0.026 | vorinostat -0.008 | citarinostat 0.024 | silmitasertib -0.028 | [5] -0.07 | [6] -0.06

HNRNPA1 (UniProt H0YH80)
inactive: [1] 0.111 | [2] 0.142 | [3] 0.532 | [4] 0.385 | entinostat -0.125 | vorinostat -0.031 | citarinostat -0.16 | silmitasertib 0.04 | [5] 0.303 | [6] -0.179

Going on with the list:

HIST2H2BF isoform 2 (UniProt Q5QNW6)
inactive: [1] 0.048 | [2] 0.225 | [3] 0.48 | [4] -0.029 | entinostat 0.159 | vorinostat 0.123 | citarinostat -0.001 | silmitasertib -0.064 | [5] 0.101 | [6] 0.016

HSPD1 (UniProt P10809)
inactive: [1] 0.012 | [2] -0.003 | [3] 0.018 | [4] 0.007 | entinostat -0.022 | vorinostat -0.023 | citarinostat -0.009 | silmitasertib -0.028 | [5] -0.038 | [6] 0.029

HSPA6 (UniProt P17066)
inactive: [1] -0.02 | [2] -0.018 | [3] 0.003 | [4] -0.012 | entinostat -0.02 | vorinostat -0.053 | citarinostat -0.009 | silmitasertib 0.032 | [5] -0.012 | [6] -0.04

HNRNPUL2 (UniProt Q1KMD3)
inactive: [1] -0.04 | [2] 0.02 | [3] 0.153 | [4] 0.017 | entinostat -0.026 | vorinostat -0.004 | citarinostat -0.077 | silmitasertib 0.046 | [5] 0.15 | [6] -0.104

HIST2H3A (UniProt Q71DI3)
inactive: [1] 0.032 | [2] 0.286 | [3] 0.46 | [4] -0.077 | entinostat 0.196 | vorinostat 0.442 | citarinostat 0.006 | silmitasertib -0.084 | [5] 0.07 | [6] -0.02

HNRNPH3 (UniProt P31942)
inactive: [1] 0.076 | [2] 0.207 | [3] 0.36 | [4] 0.029 | entinostat -0.03 | vorinostat 0.039 | citarinostat 0.01 | silmitasertib 0.137 | [5] 0.251 | [6] -0.212

HMGCS1 (UniProt Q01581)
inactive: [1] -0.023 | [2] -0.002 | [3] -0.064 | [4] 0.02 | entinostat 0.018 | vorinostat 0.002 | citarinostat 0.03 | silmitasertib -0.017 | [5] -0.033 | [6] -0.033

HMGN4 (UniProt O00479)
inactive: [1] 0.735 | [2] 0.386 | [3] 0.504 | [4] 0.297 | entinostat 0.249 | vorinostat 0.013 | citarinostat 0.144 | silmitasertib -0.358 | [5] 0.491 | [6] 0.4

HMGB1 (UniProt P09429)
inactive: [1] 0.077 | [2] 0.108 | [3] 0.035 | [4] 0.1 | entinostat 0.007 | vorinostat -0.031 | citarinostat -0.002 | silmitasertib -0.052 | [5] -0.043 | [6] 0.162

HSD17B7 (UniProt P56937)
inactive: [1] -0.011 | [2] 0 | [3] -0.186 | [4] -0.027 | entinostat 0.027 | vorinostat 0.066 | citarinostat 0.098 | silmitasertib 0.017 | [5] -0.082 | [6] -0.083

HNRNPA2B1 (UniProt P22626)
inactive: [1] -0.025 | [2] 0.086 | [3] 0.401 | [4] 0.081 | entinostat -0.037 | vorinostat 0.015 | citarinostat -0.123 | silmitasertib 0.322 | [5] 0.196 | [6] -0.175

HMG20A (UniProt Q9NP66)
inactive: [1] 0 | [2] 0.126 | [3] -0.054 | [4] -0.056 | entinostat 0.064 | vorinostat 0.09 | citarinostat 0.072 | silmitasertib 0.069 | [5] 0 | [6] -0.167

HSPE1 (UniProt P61604)
inactive: [1] -0.016 | [2] -0.083 | [3] 0.061 | [4] -0.025 | entinostat 0.03 | vorinostat -0.066 | citarinostat 0.011 | silmitasertib -0.027 | [5] -0.09 | [6] 0

HSP90B1 (UniProt P14625)
inactive: [1] -0.02 | [2] -0.013 | [3] 0.018 | [4] 0.008 | entinostat 0.001 | vorinostat -0.009 | citarinostat -0.02 | silmitasertib -0.032 | [5] -0.038 | [6] -0.048

HSDL2 (UniProt Q6YN16)
inactive: [1] 0.005 | [2] -0.031 | [3] -0.123 | [4] -0.007 | entinostat 0.055 | vorinostat 0.021 | citarinostat 0.095 | silmitasertib -0.036 | [5] -0.076 | [6] -0.046

HLTF (UniProt Q14527)
inactive: [1] -0.025 | [2] 0.037 | [3] -0.067 | [4] -0.043 | entinostat 0.069 | vorinostat -0.012 | citarinostat 0.008 | silmitasertib -0.095 | [5] -0.073 | [6] -0.101

HNRNPR isoform 2 (UniProt O43390)
inactive: [1] -0.046 | [2] 0.004 | [3] 0.188 | [4] 0.007 | entinostat 0.007 | vorinostat 0.039 | citarinostat -0.078 | silmitasertib 0.11 | [5] 0.128 | [6] -0.183

HM13 (UniProt Q8TCT9)
inactive: [1] 0.071 | [2] 0.038 | [3] -0.062 | [4] -0.074 | entinostat 0.02 | vorinostat 0.087 | citarinostat 0.013 | silmitasertib 0.004 | [5] 0.017 | [6] -0.015

HSP90AA4P (UniProt Q58FG1)
inactive: [1] -0.318 | [2] -0.355 | [3] -0.201 | [4] -0.233 | entinostat -0.079 | vorinostat -0.065 | citarinostat -0.018 | silmitasertib 0.13 | [5] -0.112 | [6] -0.151

Source: the supplement of paper PMC10849652
